Results: the supplement of paper PMC10849652
The other results are listed elsewhere or left out.

Protein sequences, listed by entry. Tags and fused reporters are not part of them. Lines headed by an entry give the natural chain unless they say otherwise; changes in a name come on top.
UniProt Q12968: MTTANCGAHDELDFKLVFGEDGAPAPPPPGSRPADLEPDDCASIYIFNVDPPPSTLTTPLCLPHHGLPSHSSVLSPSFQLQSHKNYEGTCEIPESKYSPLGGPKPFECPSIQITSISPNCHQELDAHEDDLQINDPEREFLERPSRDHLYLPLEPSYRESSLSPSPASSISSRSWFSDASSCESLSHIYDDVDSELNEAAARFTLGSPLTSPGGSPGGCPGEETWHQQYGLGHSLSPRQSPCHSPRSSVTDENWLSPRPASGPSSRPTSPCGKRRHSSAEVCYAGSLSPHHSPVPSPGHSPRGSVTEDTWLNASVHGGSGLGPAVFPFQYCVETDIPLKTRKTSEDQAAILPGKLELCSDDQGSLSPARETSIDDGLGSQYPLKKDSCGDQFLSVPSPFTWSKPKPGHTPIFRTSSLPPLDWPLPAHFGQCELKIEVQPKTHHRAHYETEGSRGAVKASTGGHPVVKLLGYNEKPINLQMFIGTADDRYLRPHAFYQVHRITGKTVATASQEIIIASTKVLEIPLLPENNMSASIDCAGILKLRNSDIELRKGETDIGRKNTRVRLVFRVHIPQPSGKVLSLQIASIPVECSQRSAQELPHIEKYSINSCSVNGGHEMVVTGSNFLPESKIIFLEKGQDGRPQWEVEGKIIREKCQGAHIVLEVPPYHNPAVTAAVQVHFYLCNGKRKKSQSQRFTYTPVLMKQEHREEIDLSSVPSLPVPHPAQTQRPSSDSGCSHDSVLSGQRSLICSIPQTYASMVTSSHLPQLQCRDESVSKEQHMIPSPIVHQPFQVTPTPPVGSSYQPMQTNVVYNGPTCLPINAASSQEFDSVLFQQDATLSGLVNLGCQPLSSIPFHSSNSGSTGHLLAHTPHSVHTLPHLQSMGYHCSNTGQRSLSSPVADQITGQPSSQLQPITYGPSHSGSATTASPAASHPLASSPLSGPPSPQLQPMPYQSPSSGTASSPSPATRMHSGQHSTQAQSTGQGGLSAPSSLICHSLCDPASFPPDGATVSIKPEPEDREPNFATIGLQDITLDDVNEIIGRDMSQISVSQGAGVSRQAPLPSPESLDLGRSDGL
UniProt O95644: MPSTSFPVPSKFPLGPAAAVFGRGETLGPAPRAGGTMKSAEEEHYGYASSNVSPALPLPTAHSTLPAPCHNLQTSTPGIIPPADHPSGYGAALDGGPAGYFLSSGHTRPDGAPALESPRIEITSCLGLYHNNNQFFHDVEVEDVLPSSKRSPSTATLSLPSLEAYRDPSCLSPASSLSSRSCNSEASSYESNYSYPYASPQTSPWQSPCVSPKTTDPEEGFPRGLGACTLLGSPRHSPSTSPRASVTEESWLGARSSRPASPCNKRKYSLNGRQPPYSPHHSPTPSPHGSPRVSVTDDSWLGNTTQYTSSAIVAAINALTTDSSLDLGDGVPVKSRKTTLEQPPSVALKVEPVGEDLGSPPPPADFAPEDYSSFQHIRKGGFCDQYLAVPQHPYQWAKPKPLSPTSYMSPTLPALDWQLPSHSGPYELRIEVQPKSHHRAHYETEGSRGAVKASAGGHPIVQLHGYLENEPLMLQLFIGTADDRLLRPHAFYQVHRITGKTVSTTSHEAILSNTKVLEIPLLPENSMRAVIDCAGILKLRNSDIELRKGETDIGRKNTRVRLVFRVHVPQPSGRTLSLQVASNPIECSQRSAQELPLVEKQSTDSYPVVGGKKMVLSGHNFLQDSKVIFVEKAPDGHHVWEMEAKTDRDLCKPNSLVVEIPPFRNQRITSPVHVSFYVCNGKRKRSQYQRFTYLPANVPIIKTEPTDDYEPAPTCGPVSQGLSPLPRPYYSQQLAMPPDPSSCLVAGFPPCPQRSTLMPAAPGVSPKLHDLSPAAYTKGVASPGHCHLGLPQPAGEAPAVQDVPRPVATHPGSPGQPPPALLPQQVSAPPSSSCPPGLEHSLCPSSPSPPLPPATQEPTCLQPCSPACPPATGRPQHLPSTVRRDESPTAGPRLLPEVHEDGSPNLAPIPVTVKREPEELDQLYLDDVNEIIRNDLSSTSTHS
UniProt Q8NCF5: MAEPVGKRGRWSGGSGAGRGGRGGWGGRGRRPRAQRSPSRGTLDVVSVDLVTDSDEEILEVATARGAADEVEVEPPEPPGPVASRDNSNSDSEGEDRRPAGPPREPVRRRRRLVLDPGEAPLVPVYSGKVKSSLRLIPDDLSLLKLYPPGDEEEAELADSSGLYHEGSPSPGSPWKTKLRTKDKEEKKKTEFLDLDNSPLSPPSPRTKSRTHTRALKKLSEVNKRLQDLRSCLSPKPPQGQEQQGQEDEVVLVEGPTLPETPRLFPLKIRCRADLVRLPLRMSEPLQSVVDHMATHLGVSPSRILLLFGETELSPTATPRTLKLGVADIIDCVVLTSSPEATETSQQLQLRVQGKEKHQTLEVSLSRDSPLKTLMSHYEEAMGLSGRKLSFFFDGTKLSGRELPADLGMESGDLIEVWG
UniProt Q96D46: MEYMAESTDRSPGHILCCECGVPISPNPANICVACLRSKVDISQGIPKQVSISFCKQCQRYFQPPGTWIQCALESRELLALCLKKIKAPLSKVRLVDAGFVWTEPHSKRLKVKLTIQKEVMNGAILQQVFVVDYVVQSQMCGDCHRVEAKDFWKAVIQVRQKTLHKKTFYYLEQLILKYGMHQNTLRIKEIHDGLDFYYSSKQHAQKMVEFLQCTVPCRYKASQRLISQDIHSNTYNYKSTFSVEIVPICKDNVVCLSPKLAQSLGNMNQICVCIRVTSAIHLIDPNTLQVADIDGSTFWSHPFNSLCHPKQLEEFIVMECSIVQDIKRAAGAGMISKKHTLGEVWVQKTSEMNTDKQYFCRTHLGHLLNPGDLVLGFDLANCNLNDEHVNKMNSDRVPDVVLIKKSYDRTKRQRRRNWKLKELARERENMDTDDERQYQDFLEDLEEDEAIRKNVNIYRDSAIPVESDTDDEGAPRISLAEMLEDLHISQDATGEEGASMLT
UniProt P25208: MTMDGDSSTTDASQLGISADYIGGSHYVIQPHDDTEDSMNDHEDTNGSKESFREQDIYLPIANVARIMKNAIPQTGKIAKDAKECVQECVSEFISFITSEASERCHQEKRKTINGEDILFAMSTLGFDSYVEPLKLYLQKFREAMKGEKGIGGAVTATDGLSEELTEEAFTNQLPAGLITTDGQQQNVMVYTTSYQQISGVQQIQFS
UniProt Q16621: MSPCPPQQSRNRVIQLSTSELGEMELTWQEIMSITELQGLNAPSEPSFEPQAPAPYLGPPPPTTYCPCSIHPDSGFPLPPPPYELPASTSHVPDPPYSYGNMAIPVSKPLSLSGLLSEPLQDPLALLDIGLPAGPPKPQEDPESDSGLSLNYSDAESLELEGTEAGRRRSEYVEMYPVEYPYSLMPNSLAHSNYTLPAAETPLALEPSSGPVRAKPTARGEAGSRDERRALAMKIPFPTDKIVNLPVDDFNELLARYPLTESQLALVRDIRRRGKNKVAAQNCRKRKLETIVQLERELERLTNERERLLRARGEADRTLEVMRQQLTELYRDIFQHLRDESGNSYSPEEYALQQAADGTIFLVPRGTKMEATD
UniProt Q14978: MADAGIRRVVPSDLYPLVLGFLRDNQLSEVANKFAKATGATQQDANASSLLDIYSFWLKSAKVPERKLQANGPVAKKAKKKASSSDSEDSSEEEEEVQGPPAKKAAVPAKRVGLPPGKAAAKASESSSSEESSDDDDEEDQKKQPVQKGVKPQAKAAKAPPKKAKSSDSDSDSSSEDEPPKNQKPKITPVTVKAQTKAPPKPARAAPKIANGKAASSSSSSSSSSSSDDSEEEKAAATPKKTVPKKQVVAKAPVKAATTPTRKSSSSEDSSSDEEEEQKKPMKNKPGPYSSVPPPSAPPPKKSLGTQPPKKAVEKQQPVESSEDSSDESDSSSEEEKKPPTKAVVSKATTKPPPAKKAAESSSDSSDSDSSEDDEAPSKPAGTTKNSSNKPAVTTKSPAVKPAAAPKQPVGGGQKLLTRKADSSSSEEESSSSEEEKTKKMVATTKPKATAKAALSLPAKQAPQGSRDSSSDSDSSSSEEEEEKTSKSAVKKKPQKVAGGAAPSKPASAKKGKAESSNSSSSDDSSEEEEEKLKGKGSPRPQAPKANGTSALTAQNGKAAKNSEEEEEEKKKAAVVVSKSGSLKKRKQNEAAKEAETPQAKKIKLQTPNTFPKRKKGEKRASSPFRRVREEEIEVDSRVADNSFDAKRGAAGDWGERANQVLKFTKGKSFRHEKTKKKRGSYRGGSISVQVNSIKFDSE
UniProt Q9BS92: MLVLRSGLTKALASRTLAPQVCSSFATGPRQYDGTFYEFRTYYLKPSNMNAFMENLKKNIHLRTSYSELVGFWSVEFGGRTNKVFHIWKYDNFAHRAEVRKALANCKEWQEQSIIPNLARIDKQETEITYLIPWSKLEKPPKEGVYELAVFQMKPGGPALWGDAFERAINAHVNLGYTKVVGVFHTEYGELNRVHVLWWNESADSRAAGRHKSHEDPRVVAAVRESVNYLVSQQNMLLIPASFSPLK
UniProt Q15738: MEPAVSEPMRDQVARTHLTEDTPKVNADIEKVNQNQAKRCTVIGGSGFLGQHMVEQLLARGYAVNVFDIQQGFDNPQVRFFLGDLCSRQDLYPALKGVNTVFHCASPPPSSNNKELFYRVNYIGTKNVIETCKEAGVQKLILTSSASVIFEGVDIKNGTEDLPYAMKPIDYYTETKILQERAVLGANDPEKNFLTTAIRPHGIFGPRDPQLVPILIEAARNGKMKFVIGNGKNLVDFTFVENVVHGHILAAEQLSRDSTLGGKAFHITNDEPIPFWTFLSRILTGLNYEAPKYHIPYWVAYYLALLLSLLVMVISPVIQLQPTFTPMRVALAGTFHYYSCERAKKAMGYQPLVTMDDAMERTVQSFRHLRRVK
UniProt P55786: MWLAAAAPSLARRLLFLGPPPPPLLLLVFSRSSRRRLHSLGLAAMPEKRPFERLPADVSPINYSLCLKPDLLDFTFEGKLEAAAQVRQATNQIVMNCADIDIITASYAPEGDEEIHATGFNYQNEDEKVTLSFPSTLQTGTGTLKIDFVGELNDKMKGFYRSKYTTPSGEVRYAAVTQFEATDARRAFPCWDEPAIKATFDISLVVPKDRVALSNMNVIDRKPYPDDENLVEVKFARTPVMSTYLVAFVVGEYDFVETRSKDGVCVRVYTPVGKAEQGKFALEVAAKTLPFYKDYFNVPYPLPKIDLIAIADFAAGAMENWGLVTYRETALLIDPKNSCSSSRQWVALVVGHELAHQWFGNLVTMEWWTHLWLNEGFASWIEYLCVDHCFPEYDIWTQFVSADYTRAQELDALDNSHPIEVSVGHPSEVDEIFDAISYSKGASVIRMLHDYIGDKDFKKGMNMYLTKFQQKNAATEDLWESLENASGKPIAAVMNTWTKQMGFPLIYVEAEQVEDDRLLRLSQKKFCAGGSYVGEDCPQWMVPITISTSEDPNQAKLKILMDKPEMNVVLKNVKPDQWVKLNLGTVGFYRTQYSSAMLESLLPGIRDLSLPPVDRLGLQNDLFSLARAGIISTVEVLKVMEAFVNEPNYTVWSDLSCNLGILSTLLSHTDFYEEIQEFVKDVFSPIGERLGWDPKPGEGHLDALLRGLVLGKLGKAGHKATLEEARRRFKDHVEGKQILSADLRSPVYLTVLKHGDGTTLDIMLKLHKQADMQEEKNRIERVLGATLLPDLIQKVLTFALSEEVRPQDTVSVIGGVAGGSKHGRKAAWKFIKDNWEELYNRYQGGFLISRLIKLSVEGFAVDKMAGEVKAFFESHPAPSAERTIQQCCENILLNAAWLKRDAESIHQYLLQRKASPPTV
UniProt Q8NC67: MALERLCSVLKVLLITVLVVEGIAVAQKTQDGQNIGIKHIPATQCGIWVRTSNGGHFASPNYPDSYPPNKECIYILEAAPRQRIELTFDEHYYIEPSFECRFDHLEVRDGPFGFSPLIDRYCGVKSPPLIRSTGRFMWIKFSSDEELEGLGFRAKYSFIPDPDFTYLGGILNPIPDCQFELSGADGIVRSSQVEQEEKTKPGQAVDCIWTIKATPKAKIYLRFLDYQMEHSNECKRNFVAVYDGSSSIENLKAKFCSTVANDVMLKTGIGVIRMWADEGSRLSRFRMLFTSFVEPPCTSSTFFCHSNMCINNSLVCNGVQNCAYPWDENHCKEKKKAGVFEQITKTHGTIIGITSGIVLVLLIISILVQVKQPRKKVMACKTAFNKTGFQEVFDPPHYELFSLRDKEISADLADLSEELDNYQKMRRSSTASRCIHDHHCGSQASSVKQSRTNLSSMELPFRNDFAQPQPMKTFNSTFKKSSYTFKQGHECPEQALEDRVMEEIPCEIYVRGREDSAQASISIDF

Columns and labels:
Assay in all cases: log2 fold change, soluble protein after heating vs DMSO (PISA); higher = thermal stabilisation; K562 cells, 10 uM, 30 min; active = over 0.2 and 3.5 SD of the protein, either way, in both replicates (recomputed)
[1] = compound: CC[C@@H]1C(=O)N(C)c2cnc(Nc3ccc(C(=O)NC4CCN(C)CC4)cc3OC)nc2N1C1CCCC1
In short: (§1)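 K562 cells at 2×10^6 cells/mL were given 10 μM compound for 30 min. Aliquots then went through 3 min of heating across 48°C-58°C, were pooled, and were extracted in PBS with 0.5% NP-40 at 4°C, and the supernatant after 21,000xg for 90 min was quantified by TMTpro 16plex LC-MS/MS with channel sums equalised. Thermal stability relative to control samples, from duplicates, is given as log2 fold change.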

volasertib = compound: CC[C@@H]1C(=O)N(C)c2cnc(Nc3ccc(C(=O)N[C@H]4CC[C@H](N5CCN(CC6CC6)CC5)CC4)cc3OC)nc2N1C(C)C [volasertib]
In short: as §1

[2] = compound: CC[C@H](C)N1C=C(C2=C(C=C(C=C21)C3=CN=C(C=C3)N4CCNCC4)C(=O)NCC5=C(C=C(NC5=O)C)C)C
In short: as §1

epoxomicin = compound: CC[C@H](C)[C@@H](C(=O)N[C@@H]([C@@H](C)O)C(=O)N[C@@H](CC(C)C)C(=O)[C@]1(CO1)C)NC(=O)[C@H]([C@@H](C)CC)N(C)C(=O)C [epoxomicin]
In short: as §1

[3] = compound: CCn1cc(-c2ccnc3[nH]c(-c4cccc(CN(C)C)c4)cc23)c(-c2ccc(NC(=O)N(C)C)cc2)n1
In short: as §1

[4] = compound: CN(C)CC(=O)Nc1ccc2[nH]c(=O)c3ccccc3c2c1
In short: as §1

[5] = compound: CN1C2=C(C3=C1C(=O)N(N=C3)CC4=CC(=CC=C4)N)SC(=C2)S(=O)C
In short: as §1

[6] = compound: CN1CCC(CNc2ccc3ncc(-c4cccc(OC(F)(F)F)c4)n3n2)CC1
In short: as §1

saracatinib = compound: CN1CCN(CCOc2cc(OC3CCOCC3)c3c(Nc4c(Cl)ccc5c4OCO5)ncnc3c2)CC1 [saracatinib]
In short: as §1

sotrastaurin = compound: CN1CCN(c2nc(C3=C(c4c[nH]c5ccccc45)C(=O)NC3=O)c3ccccc3n2)CC1 [sotrastaurin]
In short: as §1

Tubastatin A = compound: CN1CCc2c(c3ccccc3n2Cc2ccc(C(=O)NO)cc2)C1 [Tubastatin A]
In short: as §1

[7] = compound: CNC(=O)C1=CC=CC=C1NC2=NC(=NC=C2Cl)NC3=C(C=C(C=C3)N4CCOCC4)OC
In short: as §1

defactinib = compound: CNC(=O)c1ccc(Nc2ncc(C(F)(F)F)c(NCc3nccnc3N(C)S(C)(=O)=O)n2)cc1 [defactinib]
In short: as §1

rucaparib = compound: CNCc1ccc(-c2[nH]c3cc(F)cc4c3c2CCNC4=O)cc1 [rucaparib]
In short: as §1

[8] = compound: CNc1nc(-c2ccc3c(N)n[nH]c3c2)cc(N2C[C@@H](C(=O)NC3CCCCC3)CC[C@H]2C)n1
In short: as §1

encorafenib = compound: COC(=O)N[C@@H](C)CNc1nccc(-c2cn(C(C)C)nc2-c2cc(Cl)cc(NS(C)(=O)=O)c2F)n1 [encorafenib]
In short: as §1

[9] = compound: COC(=O)[C@H](CCSC)NC(=O)C1=C(C=C(C=C1)NC[C@H](CS)N)C2=CC=CC=C2
In short: as §1

[10] = compound: CCn1c(C(=O)N(C2CC2)C2CC2)cc2c3c(ncn3C)c(Nc3cc(C)n(C)n3)nc21
In short: as §1

rosiglitazone = compound: CN(CCOC1=CC=C(C=C1)C[C@H]2C(=O)NC(=O)S2)C3=CC=CC=N3 (racemic) [rosiglitazone]
In short: as §1

Target	log2 fold change [1]	log2 fold change (volasertib)	log2 fold change [2]	log2 fold change (epoxomicin)	log2 fold change [3]	log2 fold change [4]	log2 fold change [5]	log2 fold change [6]	log2 fold change (saracatinib)	log2 fold change (sotrastaurin)	log2 fold change (Tubastatin A)	log2 fold change [7]	log2 fold change (defactinib)	log2 fold change (rucaparib)	log2 fold change [8]	log2 fold change (encorafenib)	log2 fold change [9]	log2 fold change [10]	log2 fold change (rosiglitazone)
NFATC3 (UniProt Q12968)	inactive: 0.038	inactive: -0.331	inactive: 0.073	inactive: -0.046	inactive: -0.038	inactive: 0.049	inactive: 0.036	inactive: 0.039	inactive: -0.003	active: -0.451	inactive: 0.058	inactive: -0.103	inactive: -0.208	inactive: 0.281	active: -0.539	inactive: -0.166	inactive: -0.051		
NIPBL (UniProt Q6KC79)	inactive: -0.345	inactive: -0.333		inactive: -0.227							inactive: 0.022	inactive: -0.015		inactive: 0.008		inactive: 0.133		inactive: 0.184	inactive: -0.007
NEU1 (UniProt Q99519)	inactive: -0.184	active: -0.501	inactive: 0.059	inactive: 0.113	inactive: 0.052	inactive: 0.012	inactive: 0.015	inactive: -0.079	inactive: -0.044	inactive: 0	inactive: 0.028	inactive: -0.113	inactive: -0.011	inactive: -0.012	inactive: -0.011	inactive: -0.012	inactive: -0.019		
NFATC1 (UniProt O95644)	inactive: -0.01	inactive: -0.174		inactive: 0.227		inactive: -0.114				inactive: -0.204			inactive: -0.05	inactive: 0.086		inactive: 0.115	inactive: 0.108		
NEK3 (UniProt P51956)	inactive: -0.046	inactive: -0.162	inactive: 0.167	inactive: 0.067	inactive: -0.125	inactive: 0.014	inactive: 0.002	active: -0.465	inactive: 0.022	inactive: -0.125	inactive: -0.194	inactive: -0.027	inactive: -0.182	inactive: -0.013	inactive: 0.007	inactive: 0	inactive: 0.036		
NFATC2IP (UniProt Q8NCF5)	inactive: -0.09	active: -0.278	inactive: 0.069	inactive: -0.052	inactive: 0.038	inactive: 0.048	inactive: -0.008	inactive: -0.103	inactive: 0.065	inactive: -0.033	inactive: 0.012	inactive: 0.067	inactive: -0.122	inactive: 0	inactive: 0.005	inactive: 0.075	inactive: -0.017		
NMD3 (UniProt Q96D46)	inactive: 0.103	inactive: 0.151	inactive: -0.009	inactive: 0.042	inactive: -0.163	inactive: 0.04	inactive: -0.138	inactive: 0.114	inactive: 0.043	inactive: 0.02	inactive: 0.07	inactive: 0.088	inactive: 0.06	inactive: -0.181	inactive: 0.003	inactive: 0.028	inactive: -0.052		
NELFA (UniProt Q9H3P2)	inactive: -0.4	active: -0.868	inactive: 0.341	inactive: 0.053	inactive: -0.139	inactive: 0.16	inactive: -0.051	inactive: 0.006	inactive: 0.004	inactive: -0.023	inactive: 0.216	inactive: 0.078	inactive: -0.094	inactive: 0.261	inactive: -0.014	inactive: -0.039	inactive: -0.213		
NME7 (UniProt Q9Y5B8)	inactive: -0.014	active: -0.358		inactive: -0.072	inactive: -0.044	inactive: -0.045	inactive: 0.014	inactive: -0.314	inactive: -0.109	inactive: -0.017	inactive: 0.054	inactive: 0.016	inactive: -0.047	inactive: 0.006	inactive: -0.001	inactive: 0.086	inactive: -0.006		
NFYB (UniProt P25208)	inactive: 0.008	inactive: 0.019	inactive: -0.029		inactive: -0.055	inactive: -0.011	inactive: 0.031	inactive: 0.085	inactive: 0.111	inactive: -0.084	inactive: -0.143	inactive: 0	inactive: -0.001	inactive: -0.099	inactive: -0.019	inactive: -0.051	inactive: 0.03		
NFE2 (UniProt Q16621)	inactive: -0.136	inactive: -0.227	inactive: 0.018	inactive: 0.173	inactive: 0.084	inactive: 0.273	inactive: -0.015	inactive: -0.145	inactive: 0.011	inactive: -0.096	inactive: 0.093	inactive: -0.025	inactive: -0.037	inactive: -0.075	inactive: -0.065	inactive: 0.018	inactive: -0.06		
NOLC1 isoform 2 (UniProt Q14978)	inactive: -0.155	inactive: -0.024	inactive: -0.051	inactive: -0.06	inactive: 0.047	inactive: -0.048	inactive: 0.026	inactive: -0.112	inactive: -0.007	inactive: -0.036	inactive: 0.153	inactive: -0.122	active: -0.346	inactive: -0.025	inactive: -0.089	inactive: -0.007	inactive: 0		
NIPSNAP3B (UniProt Q9BS92)	inactive: -0.238	inactive: -0.028	inactive: 0.039		inactive: -0.019	inactive: -0.088	inactive: -0.176	inactive: 0.073	inactive: 0.122	inactive: 0.066	inactive: 0.01	inactive: 0.112	inactive: -0.026	active: 0.31	inactive: -0.088	inactive: -0.289	inactive: 0.008		
NSDHL (UniProt Q15738)	inactive: -0.005	inactive: 0.084	inactive: 0.105	inactive: -0.004	inactive: -0.018	inactive: 0.012	inactive: -0.193	inactive: -0.001	inactive: -0.07	inactive: 0.043	inactive: -0.004	inactive: 0.072	inactive: -0.037	inactive: -0.094	inactive: 0.041	inactive: -0.019	inactive: -0.021		
NPEPPS (UniProt P55786)	inactive: -0.005	inactive: -0.023	inactive: 0.079	inactive: -0.022	inactive: -0.102	inactive: 0.007	inactive: -0.098	inactive: -0.141	inactive: -0.013	inactive: 0.108	inactive: 0.012	inactive: -0.082	inactive: -0.004	inactive: 0.013	inactive: 0.075	inactive: -0.032	active: 0.231		
NETO2 (UniProt Q8NC67)						inactive: -0.007							inactive: -0.082				inactive: 0.345		

Some of the entries above, reformatted:
Target | log2 fold change [1] | log2 fold change (volasertib) | log2 fold change [2] | log2 fold change (epoxomicin) | log2 fold change [3] | log2 fold change [4] | log2 fold change [5] | log2 fold change [6] | log2 fold change (saracatinib) | log2 fold change (sotrastaurin) | log2 fold change (Tubastatin A) | log2 fold change [7] | log2 fold change (defactinib) | log2 fold change (rucaparib) | log2 fold change [8] | log2 fold change (encorafenib) | log2 fold change [9] | log2 fold change [10] | log2 fold change (rosiglitazone)
NME7 (UniProt Q9Y5B8) | inactive: -0.014 | active: -0.358 |  | inactive: -0.072 | inactive: -0.044 | inactive: -0.045 | inactive: 0.014 | inactive: -0.314 | inactive: -0.109 | inactive: -0.017 | inactive: 0.054 | inactive: 0.016 | inactive: -0.047 | inactive: 0.006 | inactive: -0.001 | inactive: 0.086 | inactive: -0.006 |  | 
NOLC1 isoform 2 (UniProt Q14978) | inactive: -0.155 | inactive: -0.024 | inactive: -0.051 | inactive: -0.06 | inactive: 0.047 | inactive: -0.048 | inactive: 0.026 | inactive: -0.112 | inactive: -0.007 | inactive: -0.036 | inactive: 0.153 | inactive: -0.122 | active: -0.346 | inactive: -0.025 | inactive: -0.089 | inactive: -0.007 | inactive: 0 |  | 
